Test results reported in PubChem BioAssay AID2685 (National Center for Advancing Translational Sciences (NCATS), 2010).
Screen size: about 320,000 compounds; about 2,100 (0.66%) were called active. The shares of active, inactive and inconclusive entries below differ from those in the screen. Calls come from the whole dose curve; as a rule, active = well fitted inhibition curve with a large enough effect in the signal ratio, with a control signal flat (not every such curve was filed as active); inconclusive = small, poorly fitted or top-dose-only effect, or effect the other way, or a change in a side signal; inactive = flat fitted curve, though single readings scatter; the % refers to the signal ratio. A potency beside an inconclusive call is a rough fit, not a confirmed value.

Test: qHTS Assay for Lipid Storage Modulators in Drosophila S3 Cells
Conditions: BODIPY lipid droplet fluorescence, 18-24 h, cells fed with added oleic acid; lipid storage change, negative = inhibition: at 46.1 µM (top of the series) unless noted
Summary of the method: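 Drosophila S3 cells got compounds at several concentrations plus oleic acid (400 uM solution). Laser-scanning cytometry with 488 nm excitation read lipid droplets at 500-530 nm and cells at 575-640 nm. Percent activity was relative to 20 uM Triacsin C.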
% is set by controls: 0 for no effect and ±100 for the full control effect; potency is the fitted concentration of half-maximal effect.

SMILES	lipid storage change, negative = inhibition	Potency
CSc1ncccc1C(=O)OCc1ccc([N+](=O)[O-])cc1	inconclusive: -31.4%	
COc1ccc(-n2c(CCC(=O)O)ccc2-c2ccc(F)cc2)c(OC)c1	inconclusive: -14.5%	
CCN(CC)S(=O)(=O)c1ccc(-c2nnc3sc4cccc(C)c4n23)cc1	inconclusive: 46.1%	
COC(=O)c1c(C(=O)OC)c(-c2ccc(Cl)cc2)n2c1CS(=O)(=O)C2	inconclusive: 33.4%	
O=C(Nc1cccc(C(F)(F)F)c1)c1cccnc1	inconclusive: -54%	
CC1(C)C2CCC(C2)C1(C)NC(=O)CN1CCN(Cc2ccccc2)CC1 (centres undefined)		inconclusive: 0.82 µM [activator, single point]
CCOC(=O)C1=NOC2C(=O)N(c3ccc(Cl)cc3Cl)C(=O)C12 (centres undefined)	inconclusive: -8.34%	
Cc1ccc(CN2C(=O)C3CCCN3c3ccc(C#N)cc32)cc1 (centres undefined)		inconclusive: 5.17 µM [activator, partial curve]
C/C(=N\Nc1ccc(C(F)(F)F)cc1[N+](=O)[O-])C1CC1	inconclusive: 89.1%	
CC1CCN(C(=O)CSc2nnc(CNC(=O)c3c(F)cccc3F)o2)CC1	inconclusive: -1.18%	
CC(CN1CCC(n2nccc2NC(=O)CCCc2ccccc2)CC1)c1ccccc1 (centres undefined)		inconclusive: 32.6 µM [falling, single point]
COc1ccc(CCC(C)NCC(C)c2ccccc2)cc1 (centres undefined)	inconclusive: -19.9%	
O=C(Nc1cccnc1)Nc1cccc([N+](=O)[O-])c1	inconclusive: -1.82%	
CCOC(=O)Nc1sc(C)nc1-c1ccccc1	inconclusive: -37.8%	
O=C(CCN1C(=O)c2ccccc2S1(=O)=O)Nc1ccccc1O	inconclusive: -2.56%	
O=C(NCc1ccc2c(c1)OCO2)c1ccc(C2SCC(=O)N2Cc2ccco2)cc1 (centres undefined)		inconclusive: 1.16 µM [rising, single point]
Cn1c(-c2c(N)n(CCCc3ccccc3)c3nc4ccccc4nc23)nc2ccccc21		inconclusive: 32.6 µM [falling, single point]
Cc1ccccc1CN1CCN(S(=O)(=O)c2ccc(Cl)s2)CC1	inconclusive: -3.82%	
Cc1ccc(NC(=O)Cn2ccc([N+](=O)[O-])n2)cc1Cl	inconclusive: 25.3%	
O=C(CCN1CCc2ccccc2C1)Nc1ccc(F)cc1	inconclusive: 21%	
N#C/C(=C\c1ccc(Cl)cc1)c1nc2ccccc2o1	inconclusive: -15.9%	
COc1ccc(N(C(=O)CNC(=O)c2ccco2)C(C(=O)NC2CCCC2)c2ccco2)cc1 (centres undefined)	inconclusive: 67%	
Cc1coc2cc3oc(=O)c4c(c3cc12)CCCC4		inconclusive: 1.64 µM [activator, partial curve]
COc1ccc2oc(C(=O)N3CCN(c4ncccn4)CC3)c(C)c2c1		inconclusive: 6.51 µM [activator, single point]
Cc1ccc(NC(=O)C(=O)NC2CCCCC2)cc1		inconclusive: 1.46 µM [activator, single point]

SMILES	lipid storage change, negative = inhibition	Potency
O=C1CCN(CCc2ccccc2)CCN1CCSc1ccccc1	inconclusive: -43.1%	
CCN(CC)S(=O)(=O)c1cccc(C(=O)NCC2CCCO2)c1 (centres undefined)	inconclusive: -2.31%	
CCS(=O)(=O)Nc1cccc(-c2ccc3nnc(C)n3n2)c1	inactive: 0.724%	
CCN(C(=O)Cn1nc(C)n2c(cc3cc(C)ccc32)c1=O)c1ccccc1	inconclusive: -185%	
CC1CCCC(NC(=O)CSC2=Nc3ccccc3C3CC=NN23)C1C (centres undefined)	inconclusive: 6.18%	
CC(C)(C)n1nnnc1CN(Cc1cccnc1)Cc1ccccc1Cl		inconclusive: 4.11 µM [activator, partial curve]
COc1ccc(C(=O)CC(=O)C(=O)Nc2ccccc2)cc1	inconclusive: 9.77%	
C#CCOCCOCCOCCNc1nc(N2CCN(C(=O)[C@H]([C@@H](C)CC)n3cc(CCCN=C(N)N)nn3)CC2)nc(N2CCN(C(=O)[C@H](C)n3cc(CCCN=C(N)N)nn3)CC2)n1	inconclusive: -3.65%	
Cn1c(CS/C(N)=N/N=C/c2ccccc2)c(Br)c(=O)n1-c1ccccc1	inconclusive: 2.77%	
CCOc1ccc(C2C(C(=O)c3ccco3)=C(O)C(=O)N2CCN(C)C)cc1 (centres undefined)	inconclusive: -21.5%	
CC1CC(C)CN(C(=O)COC(=O)Cc2ccc(Br)cc2)C1 (centres undefined)		inconclusive: 6.51 µM [falling, partial curve, poor fit]
CCOC(=O)c1c(C)[nH]c(C)c1S(=O)(=O)NC1CCN(C(=O)OCC)CC1		inconclusive: 5.8 µM [falling, single point]
CCOc1ccc(/C(O)=C2\C(=O)C(=O)N(CCOCCO)C2c2ccccc2OC)cc1 (centres undefined)	inconclusive: 11%	
CCc1ccc(/C=N/NC(=O)c2cc(C3CC3)nc3ccccc23)s1		inconclusive: 29.1 µM [activator, single point]
Cc1ccccc1OCC(=O)Nc1nc(C)c(C(=O)N(C)C)s1	inconclusive: 7.21%	
C=CCNc1c2c(nc3ncnn13)CC(C)CC2 (centres undefined)		inconclusive: 20.6 µM [rising, single point]
CCOC(=O)Cc1nnc(NC(=O)CSc2ccccc2)s1	inconclusive: 75.9%	
OC(COc1c(Br)cc(Br)cc1Br)CN1CCOCC1 (centres undefined)	inconclusive: 15.8%	
C/C(=N\NC(=O)CCCNc1ccc(C)cc1)c1ccccn1	inconclusive: -0.206%	
COc1c(Cl)cc(-c2noc(C)c2C(=O)NCc2ccccc2)cc1Cl	inconclusive: 5.41%	
CCOc1cc(CNCCc2ccc(S(N)(=O)=O)cc2)ccc1OCc1ccccc1	inconclusive: -18.4%	
COc1ccc(OS(=O)(=O)Cc2ccccc2)cc1		inconclusive: 5.8 µM [falling, full curve]
Cc1ccc(NC(=O)COC(=O)C2CCC(=O)N2)c(S(=O)(=O)N2CCOCC2)c1 (centres undefined)		active: 3.66 µM
O=C(NCc1ccc(F)cc1)c1ccc(NC(=O)C2CCCO2)cc1 (centres undefined)		inconclusive: 0.259 µM [activator, full curve, poor fit]

Record cards, from the list above.
O=C(CCN1CCc2ccccc2C1)Nc1ccc(F)cc1 in the list: lipid storage change, negative = inhibition: inconclusive: 21%
COc1ccc(N(C(=O)CNC(=O)c2ccco2)C(C(=O)NC2CCCC2)c2ccco2)cc1 (centres undefined) in the list: lipid storage change, negative = inhibition: inconclusive: 67%
